Record: PubChem BioAssay AID652259 (Drosophila RNAi Screening Center, 2013)
In all, the deposit lists about 22,000 reagents; this is a random part of those with a known target gene and a result. Over the whole deposit, 233 (1.1%) are marked active. 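Light values are raw, unnormalised plate reads; the ratio scores behind the reporter calls were not deposited.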 Entries without a mark were called inactive. The record does not give: the amount of reagent, the time to read-out, the dose of the treatment.

Screen: 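Identify new Wingless signalling regulators in fly cells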 (primary screen)
Cells: Drosophila clone 8 imaginal disc epithelial cells
Reagents: long dsRNA against Drosophila genes
Conditions: pathway stimulated by co-transfected Wingless expression plasmid
Measurement: 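Firefly luciferase from a tcf-site Wingless reporter, measured alongside co-transfected Renilla luciferase that tracks transfection; pathway stimulated by a Wingless plasmid; the firefly-to-Renilla ratio is not deposited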
Reading the numbers: firefly reporter light: higher = more Wg reporter light, before normalisation; Renilla control light: higher = more transfected or surviving cells
Call rule: 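a knock-down is a candidate when at least two out of four statistical tests show it departing from its plate mean; one test alone signals a weak candidate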
Meaning of the calls: active = candidate regulator (raises or lowers reporter); inactive = not a candidate

Cyp6a14: firefly reporter light, replicate 1 = 2272; firefly reporter light, replicate 2 = 4841; Renilla control light, replicate 1 = 833; Renilla control light, replicate 2 = 1866
Caf1-55: firefly reporter light, replicate 1 = 6039; Renilla control light, replicate 1 = 2587
RecQ5: firefly reporter light, replicate 1 = 4272; Renilla control light, replicate 1 = 1708
CG33339: firefly reporter light, replicate 1 = 6.23e5; firefly reporter light, replicate 2 = 6.08e5; Renilla control light, replicate 1 = 2.78e5; Renilla control light, replicate 2 = 2.33e5
nol: firefly reporter light, replicate 1 = 4.39e5; firefly reporter light, replicate 2 = 4.52e5; Renilla control light, replicate 1 = 1.75e5; Renilla control light, replicate 2 = 1.47e5
Tailor: firefly reporter light, replicate 1 = 8582; Renilla control light, replicate 1 = 2941
Acp53C14b: firefly reporter light, replicate 1 = 6208; Renilla control light, replicate 1 = 2115
CG2975: firefly reporter light, replicate 1 = 2909; firefly reporter light, replicate 2 = 8944; Renilla control light, replicate 1 = 1511; Renilla control light, replicate 2 = 3558
CG6465: firefly reporter light, replicate 1 = 7331; Renilla control light, replicate 1 = 2520
CG9003: firefly reporter light, replicate 1 = 8226; Renilla control light, replicate 1 = 2808
Ugt37A2: firefly reporter light, replicate 1 = 20743; Renilla control light, replicate 1 = 6688
cv: firefly reporter light, replicate 1 = 17440; Renilla control light, replicate 1 = 7770

2 neighbouring reagents from above, for reference:
CG33339: firefly reporter light, replicate 1 = 6.23e5; firefly reporter light, replicate 2 = 6.08e5; Renilla control light, replicate 1 = 2.78e5; Renilla control light, replicate 2 = 2.33e5
nol: firefly reporter light, replicate 1 = 4.39e5; firefly reporter light, replicate 2 = 4.52e5; Renilla control light, replicate 1 = 1.75e5; Renilla control light, replicate 2 = 1.47e5
